For at least one entry, the source does not settle the construct or the ends of the probe. No signal at the amounts used counts as a negative. Tags and fusion partners may be left off the protein sequences shown.
Target: T1, CouR (Rhodococcus jostii RHA1) (UniProt Q0S6D0)
T1 sequence (looked up, limits assumed): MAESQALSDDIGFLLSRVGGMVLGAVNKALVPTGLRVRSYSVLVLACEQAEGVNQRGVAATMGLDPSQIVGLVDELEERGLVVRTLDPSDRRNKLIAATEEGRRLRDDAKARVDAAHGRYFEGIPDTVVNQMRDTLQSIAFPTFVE
Assay: EMSA
Conditions: 200 nM CouR, EMSA: 20 mM HEPES pH 7.6, 10 mM (NH4)2SO4, 30 mM KCl, 1 mM DTT, 1 mM EDTA, 0.2% Tween 20, 100 ug/ml poly[d(I-C)], 1 nM probe, 25 C, 20 min, recombinant protein, label: 3' DIG-11-ddUTP (probe), unlabelled as competitor

Which results are given for “CATTGATGATTGAGAATGTCAATGATTAAGG (double strand) [couRp_couNp]”?
binding result (500 uM feruloyl-CoA): no binding; binding result (500 uM p-coumaroyl-CoA): no binding
